Source: PubChem BioAssay AID652243 (Drosophila RNAi Screening Center, 2013)

Assay: 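Knock-downs that decrease or increase androgen receptor reporter signal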 (primary screen)
Cell system: Drosophila S2R+ cells
Reagents: long dsRNA against Drosophila genes
Duration: 72 h (48 h, then 24 h hormone)
Conditions: synthetic androgen R1881 at 10 nM for 24 h
Measured: 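Per-well raw luminescence of the androgen-driven firefly reporter and of the Renilla control, two replicates each, without normalisation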
Scale: firefly reporter light: higher = more light from androgen-responsive reporter; Renilla control light: higher = more constitutive control signal (cell number, transfection)
Rule for the call: 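Hit when the log firefly-to-Renilla ratio dropped or increased by a fixed fold versus the mean of GFP or LacZ controls across duplicate plates; lowering cut given as 1.5 and as 3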
Meaning of the calls: active = hit: reporter lowered or raised; inactive = no hit
In all, the deposit lists about 24,000 reagents; shown is an unselected part of those that have a named target and a result. Of all reagents, 246 (1%) are marked active. 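Plates not normalised; calls are printed but the firefly/Renilla ratio behind them is not deposited; fold cut for lowering reported inconsistently.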 Raw values are not corrected between plates. The numbers tell different reagents against one gene apart. The record does not give: the amount of reagent.

After knock-down of CG34348 (GeneID 32072) #1, the screen gave firefly reporter light, replicate 1 = 5.33e5; firefly reporter light, replicate 2 = 4.79e5; Renilla control light, replicate 1 = 3.22e6; Renilla control light, replicate 2 = 2.83e6; inactive.
For CG34348 (GeneID 32072) #2, the entry reads firefly reporter light, replicate 1 = 4.67e5; firefly reporter light, replicate 2 = 4.13e5; Renilla control light, replicate 1 = 3.17e6; Renilla control light, replicate 2 = 2.92e6; inactive.
With knock-down of CG2604 (GeneID 40623) #1 the results were firefly reporter light, replicate 1 = 23197; firefly reporter light, replicate 2 = 99674; Renilla control light, replicate 1 = 1.16e6; Renilla control light, replicate 2 = 1.59e6; inactive.
CG2604 (GeneID 40623) #2 showed firefly reporter light, replicate 1 = 5.44e5; firefly reporter light, replicate 2 = 5.07e5; Renilla control light, replicate 1 = 1.01e6; Renilla control light, replicate 2 = 9.72e5; inactive.
Knock-down of CG33177 (GeneID 32438) resulted in: firefly reporter light, replicate 1 = 5.32e5; firefly reporter light, replicate 2 = 6.17e5; Renilla control light, replicate 1 = 3.24e6; Renilla control light, replicate 2 = 3.17e6; inactive.
Depletion of CG6765 (GeneID 38971) #1 came out at: firefly reporter light, replicate 1 = 1.35e5; firefly reporter light, replicate 2 = 1.22e5; Renilla control light, replicate 1 = 1.46e6; Renilla control light, replicate 2 = 7.50e5; inactive.
CG6765 (GeneID 38971) #2 showed firefly reporter light, replicate 1 = 5.21e5; firefly reporter light, replicate 2 = 6.38e5; Renilla control light, replicate 1 = 6.76e5; Renilla control light, replicate 2 = 1.08e6; inactive.

2 entries from above, set out differently:
Gene | reagent | firefly reporter light, replicate 1 | firefly reporter light, replicate 2 | Renilla control light, replicate 1 | Renilla control light, replicate 2 | outcome
CG2604 (GeneID 40623) | 2 | 5.44e5 | 5.07e5 | 1.01e6 | 9.72e5 | inactive
CG33177 (GeneID 32438) | 1 | 5.32e5 | 6.17e5 | 3.24e6 | 3.17e6 | inactive

Continued:
Depletion of Muc4B (GeneID 31368) #1 came out at: firefly reporter light, replicate 1 = 2.20e5; firefly reporter light, replicate 2 = 3.33e5; Renilla control light, replicate 1 = 1.54e6; Renilla control light, replicate 2 = 2.35e6; inactive.
Against Muc4B (GeneID 31368) #2 the deposit lists firefly reporter light, replicate 1 = 3.74e5; firefly reporter light, replicate 2 = 3.92e5; Renilla control light, replicate 1 = 3.30e6; Renilla control light, replicate 2 = 3.87e6; inactive.
Muc4B (GeneID 31368) #3 scored firefly reporter light, replicate 1 = 7.28e5; firefly reporter light, replicate 2 = 3.84e5; Renilla control light, replicate 1 = 7.45e5; Renilla control light, replicate 2 = 3.69e5; inactive.
Depletion of CG14069 (GeneID 34510) resulted in: firefly reporter light, replicate 1 = 2.49e5; firefly reporter light, replicate 2 = 2.66e5; Renilla control light, replicate 1 = 2.25e6; Renilla control light, replicate 2 = 2.78e6; inactive.
With knock-down of Taf10 (GeneID 33469), the record shows firefly reporter light, replicate 1 = 1.03e6; firefly reporter light, replicate 2 = 7.92e5; Renilla control light, replicate 1 = 8.64e5; Renilla control light, replicate 2 = 7.32e5; inactive.
Silencing of CG30088 (GeneID 246447) #1 resulted in: firefly reporter light, replicate 1 = 5.34e5; firefly reporter light, replicate 2 = 4.96e5; Renilla control light, replicate 1 = 1.95e6; Renilla control light, replicate 2 = 2.07e6; inactive.
Depletion of CG30088 (GeneID 246447) #2 resulted in: firefly reporter light, replicate 1 = 6.67e5; firefly reporter light, replicate 2 = 7.01e5; Renilla control light, replicate 1 = 9.29e5; Renilla control light, replicate 2 = 1.05e6; inactive.
